Some entries share one result that the patent states for a list of compounds.
System: BA/F3 cells expressing PDGFR
Experiment: Cell viability by MTS assay (MTS Assay 1)
Format: cell-based
Settings: FIGS. 2 and 3 and Table 2; BA/F3 cells expressing PDGFR or Flt3
Method: FIG. 2 illustrates the effect of the compounds of Examples 1 to 4 on Ba/F3 cells expressing PDGFR. Results for imatinib and quizartinib are provided as positive controls.
The effect of the compounds on cell viability were determined using MTS assay. MTS Cell Proliferation Assay Kit is a colorimetric method for sensitive quantification of viable cells in proliferation and cytotoxicity assay. The method is based on the reduction of MTS tetrazolium compound by viable cells to generate a colored formazan product that is soluble in cell culture media. BA/F3 cells expressing the receptor tyrosine kinase (either PDGFR [MTS Assay 1] or Flt3 [MTS Assay 2]) were cultured in standard culture conditions in a 96-well microtiter plate (final volume of 200 μl/well) in the absence or presence of the compound to be tested and were incubated for 20-48 hrs. MTS Reagent (20 μl/well) was added into each well & incubated for 0.5-4 hours at 37° C. in standard culture conditions. Absorbance at 490 nm was recorded using a plate reader.
Results are shown in FIGS. 2 and 3, and Table 2 (where IC50 indicates the concentration of compound required to reduce cell viability to 50%).
For the MTS Assay, the result indicates the concentration of compound required to reduce cell viability to 50%.

Row | Structure (SMILES) | Anti-tumour activity / killing of cancer cells (cell viability, MTS assay)
1 | Cc1cnc(NC(=O)COc2ccc(-c3cnc4cnccn34)cn2)cc1C(F)(F)F [Example 3] | potent anti-tumour activity
2 | Cn1nc(NC(=O)COc2ccc(-c3cnc4ccccn34)cn2)cc1C(F)(F)F [Example 1] | potent anti-tumour activity
3 | Cc1ccc(NC(=O)COc2ccc(-c3cnc4ccccn34)cn2)cc1C(F)(F)F [Example 2] | potent anti-tumour activity

From patent US20220315587A1, “COMPOUNDS FOR TREATMENT OF CANCER” (SINOPSEE THERAPEUTICS, priority 2019, published 2022)
